Data from publication PMC5787697.
Negatives hold for the conditions tested.

By UniProt entry, the sequences of proteins in these tests, tags left out. Residues count along the entry.
UniProt P09874, whole entry: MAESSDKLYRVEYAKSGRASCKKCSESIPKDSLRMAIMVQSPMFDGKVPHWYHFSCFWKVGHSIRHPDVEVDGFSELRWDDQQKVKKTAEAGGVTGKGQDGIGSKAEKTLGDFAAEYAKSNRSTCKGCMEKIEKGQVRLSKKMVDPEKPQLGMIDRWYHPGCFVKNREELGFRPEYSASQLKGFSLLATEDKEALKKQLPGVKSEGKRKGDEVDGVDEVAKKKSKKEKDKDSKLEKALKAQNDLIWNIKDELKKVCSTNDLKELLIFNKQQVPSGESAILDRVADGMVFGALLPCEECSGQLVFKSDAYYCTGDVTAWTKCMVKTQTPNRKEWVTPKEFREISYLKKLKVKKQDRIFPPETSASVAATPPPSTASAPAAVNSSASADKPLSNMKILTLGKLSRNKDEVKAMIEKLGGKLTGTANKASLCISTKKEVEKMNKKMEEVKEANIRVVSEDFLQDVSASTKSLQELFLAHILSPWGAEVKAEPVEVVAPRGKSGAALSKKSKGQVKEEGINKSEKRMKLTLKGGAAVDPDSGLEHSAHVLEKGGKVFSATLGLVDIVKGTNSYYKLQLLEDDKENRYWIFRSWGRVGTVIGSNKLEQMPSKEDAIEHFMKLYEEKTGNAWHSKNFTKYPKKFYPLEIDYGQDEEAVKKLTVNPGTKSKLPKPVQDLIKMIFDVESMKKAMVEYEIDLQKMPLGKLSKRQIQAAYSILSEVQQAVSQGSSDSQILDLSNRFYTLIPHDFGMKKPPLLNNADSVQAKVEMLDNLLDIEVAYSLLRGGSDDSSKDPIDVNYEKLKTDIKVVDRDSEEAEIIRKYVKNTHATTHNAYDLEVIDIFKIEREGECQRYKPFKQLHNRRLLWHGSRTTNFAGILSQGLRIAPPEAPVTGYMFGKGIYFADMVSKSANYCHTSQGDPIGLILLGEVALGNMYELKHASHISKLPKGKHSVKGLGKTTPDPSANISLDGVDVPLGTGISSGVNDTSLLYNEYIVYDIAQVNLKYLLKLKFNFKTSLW
UniProt P02769, 25-607: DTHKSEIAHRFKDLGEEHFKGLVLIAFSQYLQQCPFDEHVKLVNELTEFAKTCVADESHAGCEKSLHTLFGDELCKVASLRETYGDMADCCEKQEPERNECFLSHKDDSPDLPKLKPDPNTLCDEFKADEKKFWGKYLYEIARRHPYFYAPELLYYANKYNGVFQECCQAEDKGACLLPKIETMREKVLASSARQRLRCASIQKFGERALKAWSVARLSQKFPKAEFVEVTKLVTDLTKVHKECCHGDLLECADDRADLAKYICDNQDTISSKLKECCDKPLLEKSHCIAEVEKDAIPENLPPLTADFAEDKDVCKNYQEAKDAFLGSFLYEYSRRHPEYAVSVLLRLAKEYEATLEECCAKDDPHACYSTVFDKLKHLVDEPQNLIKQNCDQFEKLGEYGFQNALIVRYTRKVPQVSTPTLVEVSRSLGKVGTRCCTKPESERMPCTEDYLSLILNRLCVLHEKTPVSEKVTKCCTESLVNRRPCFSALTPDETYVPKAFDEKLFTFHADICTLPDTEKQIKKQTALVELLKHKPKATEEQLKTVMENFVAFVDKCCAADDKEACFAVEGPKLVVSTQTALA

Tests used:
[1] = target: PARylated PARP1-FL (human) (UniProt P09874); test: EMSA; details: NAD+; 25 mM Tris pH 7.5, 75 mM NaCl, 50 mM arginine, 0.1 mM TCEP, 0.1 ug/ul BSA, room temperature 30 min; 0.05 uM probe, 0-2.5 uM protein; native 10% PAGE in TBE; recombinant protein; residues 1-1014; protein details: His; label: 5'-32P
[2] = target: bovine serum albumin (bovine) (UniProt P02769); test: EMSA; details: increasing BSA, data not shown; 25 mM Tris pH 7.5, 75 mM NaCl, 50 mM arginine, 0.1 mM TCEP, 0.1 ug/ul BSA, room temperature 30 min; 0.05 uM probe, 0-2.5 uM protein; native 10% PAGE in TBE; commercial protein; label: 5'-32P

## UAGGCACCGGCAUCUUGAC [19-mer ssRNA]
[1]
  binding result: no binding
[2]
  binding result: no binding
